Here are results for 1 substance from article PMC6082843.

Protein sequences, listed by entry. Tags and fused reporters are not part of them. Lines headed by an entry give the natural chain unless they say otherwise; changes in a name come on top.
UniProt Q9UNH5: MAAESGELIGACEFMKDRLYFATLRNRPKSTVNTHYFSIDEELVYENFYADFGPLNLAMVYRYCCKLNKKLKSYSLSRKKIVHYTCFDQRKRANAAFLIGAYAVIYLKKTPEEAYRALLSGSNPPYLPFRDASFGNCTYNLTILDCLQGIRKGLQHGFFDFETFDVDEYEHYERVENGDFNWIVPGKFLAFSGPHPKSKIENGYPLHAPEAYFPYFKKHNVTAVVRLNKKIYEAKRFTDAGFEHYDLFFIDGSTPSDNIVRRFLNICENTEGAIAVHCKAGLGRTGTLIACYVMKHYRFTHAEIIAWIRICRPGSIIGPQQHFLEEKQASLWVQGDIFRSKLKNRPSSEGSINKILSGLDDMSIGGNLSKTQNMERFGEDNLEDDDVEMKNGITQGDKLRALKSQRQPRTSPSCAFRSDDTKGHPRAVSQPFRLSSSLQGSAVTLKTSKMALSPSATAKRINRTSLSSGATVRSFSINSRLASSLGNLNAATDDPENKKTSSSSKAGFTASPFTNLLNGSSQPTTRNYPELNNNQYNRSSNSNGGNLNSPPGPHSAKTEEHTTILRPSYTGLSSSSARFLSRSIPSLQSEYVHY
UniProt Q9UM11: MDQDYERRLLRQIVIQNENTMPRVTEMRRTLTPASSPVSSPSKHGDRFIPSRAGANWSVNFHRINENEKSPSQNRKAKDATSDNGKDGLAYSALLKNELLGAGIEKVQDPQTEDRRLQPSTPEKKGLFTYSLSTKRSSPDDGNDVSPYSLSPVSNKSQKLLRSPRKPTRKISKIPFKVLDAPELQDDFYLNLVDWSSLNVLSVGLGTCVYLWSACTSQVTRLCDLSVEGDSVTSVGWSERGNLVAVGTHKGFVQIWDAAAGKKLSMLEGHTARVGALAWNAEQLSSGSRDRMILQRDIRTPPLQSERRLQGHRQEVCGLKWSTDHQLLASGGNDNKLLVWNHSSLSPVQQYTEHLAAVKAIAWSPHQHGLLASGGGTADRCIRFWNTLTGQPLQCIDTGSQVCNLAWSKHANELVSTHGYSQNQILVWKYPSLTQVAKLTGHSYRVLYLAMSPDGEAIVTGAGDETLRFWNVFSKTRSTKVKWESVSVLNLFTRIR

Results are given in words; binding and its absence hold for the method and conditions named. In cells and extracts the contact can be indirect. Binding calls can cover weak binding; strength is not graded here.

One experiment concerns the target Cdc14A(PD) (human) (UniProt Q9UNH5). Description: co-IP; co-immunoprecipitation from cellular mitotic extracts (Supplementary Figure S8).
The next experiment deals with Cdc14A(PD)−3A (human) (UniProt Q9UNH5). The description is as above.

Consider “Cdh1, the activator of APC/C (from UniProt Q9UM11 1-496)”, for which the binding result in the experiment with Cdc14A(PD) (human) and in the experiment with Cdc14A(PD)−3A (human) was “binds” each time.
